Literature values as cited in patent US20060106064A1, “Butyrophenones and sigma-1 receptor antagonists protect against oxidative-stress” (University of North Texas Health Science Center at Fort …, priority 2004, published 2006).
Some entries share one result that the patent states for a list of compounds.

Tested on: rat cortical cultures
Details: literature; cited from earlier work

(+)-SKF 10,047
protective potency: 1 to 4 µM
